# Data taken from patent EP1028948B1, “PHENYL-ALKYL-IMIDAZOLES AS H3 RECEPTOR ANTAGONISTS” (SCHERING CORPORATION, priority 1997, dated 1999).
# The chains behind the UniProt entries cited, without tags or fusion partners. Where a name states a change or a piece, a line headed by the entry shows the natural chain unless it says otherwise.
# UniProt Q9JI35: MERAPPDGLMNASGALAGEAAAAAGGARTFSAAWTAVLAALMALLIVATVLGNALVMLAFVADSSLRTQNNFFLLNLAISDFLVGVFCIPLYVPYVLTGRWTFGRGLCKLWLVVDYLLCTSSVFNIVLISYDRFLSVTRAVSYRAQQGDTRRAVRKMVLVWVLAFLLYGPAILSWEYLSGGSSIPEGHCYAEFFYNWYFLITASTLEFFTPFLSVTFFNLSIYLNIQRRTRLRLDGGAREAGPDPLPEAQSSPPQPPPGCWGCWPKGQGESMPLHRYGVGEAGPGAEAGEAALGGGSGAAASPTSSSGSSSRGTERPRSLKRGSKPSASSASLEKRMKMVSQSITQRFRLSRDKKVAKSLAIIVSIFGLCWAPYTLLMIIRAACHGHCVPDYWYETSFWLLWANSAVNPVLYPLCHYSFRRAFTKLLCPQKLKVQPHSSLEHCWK
# Some entries share one result that the patent states for a list of compounds.
# Biological target: T1, H3 receptors (Cavia porcellus, UniProt Q9JI35)
# T1 construct: The brain tissue was homogenized using a Polytron in a solution of 50 mM Tris, pH 7.5; from tissue; host or cells: guinea pig brain membranes
# Test: H3 Receptor Binding Assay
# Details: guinea pig brain membranes; 3 nM [3H]R-α-methylhistamine or 3 nM [3H]Nα-methylhistamine; 30°C for 30 min
# Procedure: The source of the H3 receptors in this experiment was guinea pig brain. The animals weighed 400-600 g. […] The final concentration of tissue in the homogenization buffer was 10% w/v. […] The membranes were frozen and stored at -70°C until needed.
# Membranes were then added (400 µg of protein) to the reaction tubes. […] Bound ligand was separated from unbound ligand by filtration, and the amount of radioactive ligand bound to the membranes was quantitated by liquid scintillation spectrometry.
smiles,measurement,value
O=C(C=Cc1ccc(Cc2c[nH]cn2)cc1)NCc1ccc(Cl)cc1 [Compound 2],Ki,1 to 1000 nM
